Measured values as given in patent US20040033251A1, “Active agent delivery system including a polyurethane, medical device, and method” (Medtronic, Inc., priority 2002, published 2004).
At least one structure is not confirmed: it was looked up by name or label, or the drawing left a doubt.

Legend:
[1] = Dissolution of dexamethasone from PCU 75D/PCU 55D blend coated shims in PBS; assay type: physicochemical; settings: PCU 75D/PCU 55D blends, 37° C.
[2] = Dissolution of dexamethasone from PCU 75D/PC blend coated shims in PBS; assay type: physicochemical; settings: PCU 75D/PC blends

SMILES: C[C@@H]1C[C@H]2[C@@H]3CCC4=CC(=O)C=C[C@]4(C)[C@@]3(F)[C@@H](O)C[C@]2(C)[C@@]1(O)C(=O)CO [Dexamethasone]
- Release rate versus blend composition ([1]; FIG. 6): released faster from PCU 75D 100 than from PCU 75D 70
- Release rate versus blend composition ([1]; FIG. 6, listed as dexamethasone): increased with an increasing amount of PCU 55D in the blend
- Burst in release ([2]; FIG. 2): no burst
- Cumulative release versus blend composition ([2]; PBS, 37° C., FIG. 2): increased with an increasing amount of PCU in the blend
- Diffusion coefficient versus blend composition ([2]; calculated from release curves, FIG. 3): log of the diffusion coefficient was almost a linear function of the blend composition
